{
  "sequences": {"note": "The chains behind the UniProt entries cited, without tags or fusion partners.", "UniProt P10415": "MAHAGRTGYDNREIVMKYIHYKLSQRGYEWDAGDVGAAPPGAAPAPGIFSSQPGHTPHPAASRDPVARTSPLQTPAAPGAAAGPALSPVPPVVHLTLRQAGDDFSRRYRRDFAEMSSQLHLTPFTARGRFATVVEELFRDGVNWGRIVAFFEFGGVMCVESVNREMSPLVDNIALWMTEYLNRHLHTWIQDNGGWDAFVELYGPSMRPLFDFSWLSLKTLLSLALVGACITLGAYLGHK", "UniProt Q14457": "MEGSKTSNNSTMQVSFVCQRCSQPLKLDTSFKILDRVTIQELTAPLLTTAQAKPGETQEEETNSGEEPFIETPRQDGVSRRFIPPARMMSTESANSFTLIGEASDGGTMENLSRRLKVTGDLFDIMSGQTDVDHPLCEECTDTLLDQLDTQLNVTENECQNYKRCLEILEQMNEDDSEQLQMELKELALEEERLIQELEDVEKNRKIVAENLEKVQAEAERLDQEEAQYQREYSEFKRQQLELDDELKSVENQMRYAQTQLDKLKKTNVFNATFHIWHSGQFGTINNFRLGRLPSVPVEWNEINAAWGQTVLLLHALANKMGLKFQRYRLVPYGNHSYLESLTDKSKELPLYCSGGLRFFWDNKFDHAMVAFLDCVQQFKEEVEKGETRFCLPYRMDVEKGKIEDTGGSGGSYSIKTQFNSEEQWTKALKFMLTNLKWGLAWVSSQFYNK"},
  "source": "paper PMC5535836",
  "molecular_target": "Bcl-2 (human (endogenous in NPC-TW01)) (UniProt P10415)",
  "test": "co-IP; lysates of NPC-TW01 cells treated with 0, 100 or 200 µM capsaicin for 24 h; precipitated with anti-Bcl-2 antibodies (N19) and protein A/G plus agarose beads; Western blotting with anti-Beclin-1 or anti-Bcl-2 antibodies",
  "note": "These are yes or no findings as the source states them, for the method shown. Binding seen in cells or lysates may run through a third protein. Some entries that bind do so weakly or less than the wild type.",
  "data": [
    {"substance": "Beclin-1 (from UniProt Q14457 1-450)", "values": [
      {"measurement": "binding", "result": "binds"}
    ]}
  ]
}
